Laboratory results reported in publication doi:10.1101/2021.06.14.448427 (bioRxiv, 2021).
These are yes or no findings as the source states them, for the method shown.

B1: Uncleaved CDCP1 ectodomain (fl-CDCP1) (domain or fragment, UniProt Q9H5V8 30-667)
chain: FEIALPRESNITVLIKLGTPTLLAKPCYIVISKRHITMLSIKSGERIVFTFSCQSPENHFVIEIQKNIDCMSGPCPFGEVQLQPSTSLLPTLNRTFIWDVKAHKSIGLELQFSIPRLRQIGPGESCPDGVTHSISGRIDATVVRIGTFCSNGTVSRIKMQEGVKMALHLPWFHPRNVSGFSIANRSSIKRLCIIESVFEGEGSATLMSANYPEGFPEDELMTWQFVVPAHLRASVSFLNFNLSNCERKEERVEYYIPGSTTNPEVFKLEDKQPGNMAGNFNLSLQGCDQDAQSPGILRLQFQVLVQHPQNESNKIYVVDLSNERAMSLTIEPRPVKQSRKFVPGCFVCLESRTCSSNLTLTSGSKHKISFLCDDLTRLWMNVEKTISCTDHRYCQRKSYSLQVPSDILHLPVELHDFSWKLLVPKDRLSLVLVPAQKLQQHTHEKPCNTSFSYLVASAIPSQDLYFGSFCPGGSIKQIQVKQNISVTLRTFAPSFQQEASRQGLTVSFIPYFKEEGVFTVTPDTKSKVYLRTPNWDRGLPSLTSVSWNISVPRDQVACLTFFKERSGVVCQTGRAFMIIQEQRTRAEEIFSLDEDVLPKPSFHHHSFWVNISNCSPTSGKQLDLLFSVTLTPRTVDLT
B2: Cleaved CDCP1 ectodomain complex, Cut 3 (c-CDCP1 (Cut 3)) (complex, UniProt Q9H5V8 30-369; Q9H5V8 370-665)
chain 1: FEIALPRESNITVLIKLGTPTLLAKPCYIVISKRHITMLSIKSGERIVFTFSCQSPENHFVIEIQKNIDCMSGPCPFGEVQLQPSTSLLPTLNRTFIWDVKAHKSIGLELQFSIPRLRQIGPGESCPDGVTHSISGRIDATVVRIGTFCSNGTVSRIKMQEGVKMALHLPWFHPRNVSGFSIANRSSIKRLCIIESVFEGEGSATLMSANYPEGFPEDELMTWQFVVPAHLRASVSFLNFNLSNCERKEERVEYYIPGSTTNPEVFKLEDKQPGNMAGNFNLSLQGCDQDAQSPGILRLQFQVLVQHPQNESNKIYVVDLSNERAMSLTIEPRPVKQSRK
chain 2: FVPGCFVCLESRTCSSNLTLTSGSKHKISFLCDDLTRLWMNVEKTISCTDHRYCQRKSYSLQVPSDILHLPVELHDFSWKLLVPKDRLSLVLVPAQKLQQHTHEKPCNTSFSYLVASAIPSQDLYFGSFCPGGSIKQIQVKQNISVTLRTFAPSFQQEASRQGLTVSFIPYFKEEGVFTVTPDTKSKVYLRTPNWDRGLPSLTSVSWNISVPRDQVACLTFFKERSGVVCQTGRAFMIIQEQRTRAEEIFSLDEDVLPKPSFHHHSFWVNISNCSPTSGKQLDLLFSVTLTPRTVD

What was measured:
[1] = molecular target: Uncleaved CDCP1 ectodomain (fl-CDCP1) (human) (UniProt Q9H5V8); assay: SEC-MALS
[2] = molecular target: Cleaved CDCP1 ectodomain complex, Cut 3 (c-CDCP1 (Cut 3)) (human) (UniProt Q9H5V8); assay: SEC-MALS

Row | Binder | binding [1] | binding [2]
1 | B1 | no binding (tested: ∼ 5 mg/ml injected) | 
2 | B2 |  | no binding (tested: ∼ 5 mg/ml injected)
